Measurements reported in PubChem BioAssay AID686937 (Drosophila RNAi Screening Center, 2013).
The screen tested about 23,000 reagents; below is an unselected part of those with a known target gene and a result. 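Reduced-secretion tags in replicate 1 do not always agree with the z-scores; no criterion for assigning the tags was given.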 Not all columns of the deposit are shown. Not stated in the record: the amount of reagent.

Aim: 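Genes in the fly needed for secretion of protein constitutively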 (primary screen)
Cell system: Drosophila S2 cells expressing secreted horseradish peroxidase
Reagents: long dsRNA against Drosophila genes
Duration: about 5.5 days (5 days dsRNA, then 12 h reporter induction)
Conditions: reporter expression induced after 5 days of dsRNA, read 12 h later; inducer not stated
Detection: 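After 5 days of dsRNA and 12 h of reporter induction, medium peroxidase read by chemiluminescence and scored as per-plate z-score; higher values mean more reporter released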
Direction: z-score: higher = more reporter secreted into medium

Cpr65Az (Cuticular protein 65Az) [DRSC09882]: z-score, replicate 1 = -0.22
Cpr65Az (Cuticular protein 65Az) [DRSC22057]: z-score, replicate 1 = -0.02
Cyp6a14 (Cytochrome P450 6a14) [DRSC07376]: z-score, replicate 1 = 0.24
CG15035 [DRSC17967]: z-score, replicate 1 = 0.19
blot (bloated tubules) [DRSC09485]: z-score, replicate 1 = 0.22
blot (bloated tubules) [DRSC11328]: z-score, replicate 1 = 0.12
TAF1C-like [DRSC04073]: z-score, replicate 1 = 0.13
CG9119 [DRSC08620]: z-score, replicate 1 = -4.92; phenotype, replicate 1 = reduced secretion
CG4168 [DRSC01446]: z-score, replicate 1 = -0.34
CG4168 [DRSC01447]: z-score, replicate 1 = 0.31
CG4168 [DRSC01933]: z-score, replicate 1 = 0.35
CG4168 [DRSC21319]: z-score, replicate 1 = 0.98
CG4168 [DRSC22789]: z-score, replicate 1 = 0.26
CG32221 [DRSC09638]: z-score, replicate 1 = -0.58
CG15256 [DRSC01491]: z-score, replicate 1 = -8.23; phenotype, replicate 1 = reduced secretion
CG15256 [DRSC01940]: z-score, replicate 1 = 0.13
eIF3a (eukaryotic translation initiation factor 3 subunit a) [DRSC12339]: z-score, replicate 1 = -3.36; phenotype, replicate 1 = reduced secretion
CG13409 [DRSC14585]: z-score, replicate 1 = 0.31
CG12481 [DRSC19461]: z-score, replicate 1 = 0.41
CG31279 [DRSC13158]: z-score, replicate 1 = -0.5
CG34408 [DRSC17733]: z-score, replicate 1 = 0.51
CG34408 [DRSC21926]: z-score, replicate 1 = -1.23; phenotype, replicate 1 = reduced secretion
CG12310 [DRSC09878]: z-score, replicate 1 = 0.24
CG5882 [DRSC15907]: z-score, replicate 1 = -0.2
mfas (midline fasciclin) [DRSC16997]: z-score, replicate 1 = 0.27
Spt (Spitting Image) [DRSC07123]: z-score, replicate 1 = 0.41
CG33137 [DRSC22131]: z-score, replicate 1 = 0.32
CG30458 [DRSC06660]: z-score, replicate 1 = 0.38
Prp5 (pre-mRNA processing factor 5) [DRSC19975]: z-score, replicate 1 = 0
Stacl (Stac-like) [DRSC05553]: z-score, replicate 1 = -2.85; phenotype, replicate 1 = reduced secretion
Stacl (Stac-like) [DRSC06260]: z-score, replicate 1 = -0.23
Stacl (Stac-like) [DRSC06261]: z-score, replicate 1 = 0.21
Stacl (Stac-like) [DRSC06777]: z-score, replicate 1 = 0.14
Stacl (Stac-like) [DRSC07091]: z-score, replicate 1 = 0.17; phenotype, replicate 1 = reduced secretion
dj (don juan) [DRSC12625]: z-score, replicate 1 = 0.44
CG18004 [DRSC06705]: z-score, replicate 1 = 0.3
Naa35 (N(alpha)-acetyltransferase 35) [DRSC04447]: z-score, replicate 1 = 0.16
ash1 (absent, small, or homeotic discs 1) [DRSC11325]: z-score, replicate 1 = 0.49
svr (silver) [DRSC17293]: z-score, replicate 1 = 0.38
svr (silver) [DRSC18841]: z-score, replicate 1 = 0.32
